Results published in PubChem BioAssay AID1688 (National Center for Advancing Translational Sciences (NCATS), 2009).
Hit rate of the full screen: of about 220,000 compounds, about 2,400 (1.1%) were called active. Inconclusive means that the source gave no clear call. Such entries were picked first, then a sample of the others. Calls follow the shape of the dose curve; as a rule, active = well fitted inhibition curve with a large enough effect; inconclusive = small, poorly fitted or top-dose-only effect, or effect the other way; inactive = no such curve, though single readings can be large or run the other way. Where the call is inconclusive, the potency comes from a doubtful curve fit.

Assay: qHTS Multiplex Assay to Identify Dual Action Probes in a Cell Model of Huntington: Aggregate Formation (GFP); also: nearly all actives have a fitted effect of over 60% in size
Conditions: PC12 HttQ103-GFP aggregates, Acumen cytometry, 40 h; activity change, negative = inhibition: at 46.1 µM (top of the series) unless noted
How it was run: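 Multiplexed with ATP-based cell death, this channel scores GFP aggregates in PC12 cells expressing inducible HTTex1-Q103-GFP. Induction used 100 nM tebufenozide; compounds were tested in concentration series.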
% is scaled to controls: 0 for no effect and ±100 for the full control effect; potency is read from the fitted curve at half-maximal effect.

Question: With `Oc1c(C(c2ccccc2Cl)N2CCCC2)ccc2cccnc12` (stereo not drawn) as the compound, how does the Potency read?
Answer: inconclusive: 2.24 µM [inhibitor, full curve]

Question: Which Potency does the source give for `CCOc1ccc(CCNC(=O)CN2CCN(Cc3ccccc3C)C2=O)cc1OCC` here?
Answer: inconclusive: 35.5 µM [inhibitor, single point]

Question: With `CC1(C)CC(=O)C=C(NCCN2CCN(C(=O)Nc3ccccc3)CC2)C1` as the compound, how does the Potency read?
Answer: active: 5.62 µM

Question: For `COc1ccc(-c2cc3nc4ccccc4n3c(N)c2C#N)cc1`, which activity change, negative = inhibition is on record?
Answer: inactive: -15.8% [at 9.22 µM]

Question: Which Potency does the source give for `O=C(/C=C/c1ccccc1)NC(NC(=S)Nc1cc(Cl)ccc1Cl)C(Cl)(Cl)Cl` (stereo not drawn) here?
Answer: active: 2.82 µM

Question: With `Cc1ccc(-n2nnnc2CSc2nnc(-c3ccc(O)cc3)o2)cc1` as the compound, how does the Potency read?
Answer: inconclusive: 35.5 µM [inhibitor, single point]

Question: For `C=CCn1c(COc2ccccc2)nnc1SCC(=O)N/N=C/c1cc(Cl)ccc1O`, which Potency is on record?
Answer: active: 7.94 µM

Question: With `CCc1ccc2n(-c3ccc(OC)cc3)c([S-])c(C(=O)Nc3cc(C)cc(C)c3)[n+]2c1` as the compound, how does the activity change, negative = inhibition read?
Answer: inactive: -23.8% [at 9.22 µM]

Question: Which “activity change, negative = inhibition” value does the source give for `CCOC(=O)CSc1nc2c(sc(=S)n2-c2ccc(OCC)cc2)c(=O)[nH]1` here?
Answer: inactive: -9.01%

Question: Which Potency does the source give for `COc1ccc(NC(=O)c2[nH]c(C)c(C(C)=O)c2C)cc1Cl` here?
Answer: inconclusive: 14.1 µM [inhibitor, single point]

Question: With `O=[N+]([O-])c1cc(S(=O)(=O)NC2=NCCCCC2)ccc1Cl` as the compound, how does the Potency read?
Answer: inconclusive: 35.5 µM [inhibitor, single point]

Question: Which Potency does the source give for `CCC1(C)Cc2nc3[nH]c(=S)n(-c4ccc(C)cc4)c(=O)c3cc2CO1` (stereo not drawn) here?
Answer: inconclusive: 5.62 µM [inhibitor, single point]

Question: Which Potency does the source give for `CN(C)C(=O)c1ccc(-c2nnc(NCc3ccccc3)c3ccccc23)cc1` here?
Answer: inconclusive: 3.16 µM [inhibitor, partial curve]

Question: For `CCCCCCC(=O)N(O)C1CC(=O)N(c2ccccc2)C1=O` (stereo not drawn), which Potency is on record?
Answer: inconclusive: 22.4 µM [inhibitor, single point]

Question: Which “activity change, negative = inhibition” value does the source give for `COC(=O)c1cc(-c2ccc(NC(C)=O)cc2)nc2ccccc12` here?
Answer: inactive: 19.6%

Question: For `N#CCCN(C(=O)COC(=O)c1cccc(S(=O)(=O)Nc2ccc([N+](=O)[O-])cc2)c1)c1ccccc1`, which Potency is on record?
Answer: inconclusive: 35.5 µM [activator, single point]

Question: For `Cc1cccc(S(=O)(=O)C(C#N)c2nc3ccccc3nc2N2CC(C)OC(C)C2)c1` (stereo not drawn), which “activity change, negative = inhibition” value is on record?
Answer: inactive: -11.8%

Question: Which Potency does the source give for `Cc1ccc(S(=O)(=O)N2CCCN(S(=O)(=O)c3ccc(C)cc3)CC2)cc1` here?
Answer: inconclusive: 5.62 µM [activator, single point]

Question: For `COc1ccc(CC(N)C(=O)NC2C(CO)OC(n3cnc4c(N(C)C)ncnc43)C2O)cc1` (stereo not drawn), which Potency is on record?
Answer: active: 12.6 µM

Question: Which Potency does the source give for `CC1CCCN(c2ccc([N+](=O)[O-])cc2C(=O)c2ccccc2)C1` (stereo not drawn) here?
Answer: inconclusive: 2.51 µM [inhibitor, single point]

Question: For `COc1cc(OC)c(C2=NOC(C(=O)N3CCN(C(=O)c4ccco4)CC3)C2)cc1Cl` (stereo not drawn), which Potency is on record?
Answer: inconclusive: 3.98 µM [activator, full curve, poor fit]

Question: For `C=CCn1c2ccccc2c2nnc(SCCCn3c(=O)[nH]c4ccccc43)nc21`, which Potency is on record?
Answer: inconclusive: 25.1 µM [inhibitor, single point]

Question: With `O=C(N/N=C/c1ccc(-c2ccccc2[N+](=O)[O-])o1)[C@H]1C[C@@H]1c1ccccc1` as the compound, how does the Potency read?
Answer: inconclusive: 7.08 µM [inhibitor, full curve]

Question: For `O=C(/C=C/c1ccco1)NCCCN1CCN(CCCNC(=O)/C=C/c2ccco2)CC1`, which “activity change, negative = inhibition” value is on record?
Answer: inactive: -18.7%

Question: With `O=C(Nc1cccc(Cl)c1)Nc1nnc(-c2ccncc2)s1` as the compound, how does the Potency read?
Answer: active: 12.6 µM

Question: For `Cc1ccc2cc(CCNC(=O)c3cc4ccccc4o3)c(=O)[nH]c2c1C`, which Potency is on record?
Answer: inconclusive: 35.5 µM [inhibitor, single point]

Question: For `CCC(Sc1ccc(C(=O)O)cc1)C(=O)O` (stereo not drawn), which Potency is on record?
Answer: inconclusive: 5.62 µM [inhibitor, single point]

Question: Which Potency does the source give for `N#CC(C#N)=Cc1ccc(-c2ccc(S(=O)(=O)N=C(N)N)cc2)o1` here?
Answer: inconclusive: 17.8 µM [inhibitor, single point]

Question: With `CC(=O)N1CCN(c2ccc(NC(=S)NC(=O)c3ccc(C)c([N+](=O)[O-])c3)cc2)CC1` as the compound, how does the Potency read?
Answer: inconclusive: 0.0891 µM [inhibitor, full curve, poor fit]

Question: Which Potency does the source give for `CO/N=C/c1ccc(Oc2ccc([N+](=O)[O-])cc2[N+](=O)[O-])c(OC)c1` here?
Answer: inconclusive: 35.5 µM [activator, single point]

Question: For `N#C/C(=C\c1cn[nH]c1-c1ccc(Cl)cc1)C(=O)NCc1ccccc1`, which “activity change, negative = inhibition” value is on record?
Answer: inactive: -13.8%

Question: Which Potency does the source give for `COc1ccc(/C=C2\CCc3ccccc3C2=O)cc1Cn1nc(C)cc1C` here?
Answer: active: 25.1 µM

Question: Which Potency does the source give for `COc1cccc(-c2cc(C(F)(F)F)n3nc(C(=O)N4CCCCC4c4cccnc4)cc3n2)c1` (stereo not drawn) here?
Answer: inconclusive: 20 µM [inhibitor, single point]

Question: Which Potency does the source give for `COCCCn1c2nc3ccccc3nc2c2c(=O)n(CC3CCCO3)cnc21` (stereo not drawn) here?
Answer: inconclusive: 35.5 µM [activator, single point]

Question: For `O=C(N/N=C/c1c(Cl)cccc1Cl)c1n[nH]c2c1CCCC2`, which “activity change, negative = inhibition” value is on record?
Answer: inactive: 13.1%

Question: For `COc1ccc(N(C(=O)CCl)C(C(=O)NCCc2ccccc2)c2cccs2)cc1` (stereo not drawn), which Potency is on record?
Answer: active: 2.24 µM

Question: Which Potency does the source give for `Cc1ccc(CN2CCN(CC(=O)NCCCN3CCN(c4ccc(F)cc4)CC3)C2=O)cc1` here?
Answer: inconclusive: 25.1 µM [inhibitor, single point]

Question: For `Cc1ccccc1NC(=O)C1CCCN1/C=C/C(=O)C(F)(F)F` (stereo not drawn), which Potency is on record?
Answer: inconclusive: 6.31 µM [inhibitor, single point]

Question: For `N=C1C(c2nc3ccccc3[nH]2)=C(O)CN1c1ccc(CC(=O)O)cc1`, which “activity change, negative = inhibition” value is on record?
Answer: inactive: 23.7%

Question: For `CCOc1cc(S(=O)(=O)Nc2ccc(CC)cc2)ccc1Cl`, which Potency is on record?
Answer: inconclusive: 12.6 µM [inhibitor, single point]

Question: Which “activity change, negative = inhibition” value does the source give for `Cc1nc(NC(=S)NC(=O)c2cccs2)sc1C(=O)N(C)C` here?
Answer: inactive: -8.07%

Question: Which Potency does the source give for `CCOc1ccc(CCNC(=O)c2cc3c(C)nccc3[nH]c2=O)cc1OCC` here?
Answer: inconclusive: 11.2 µM [inhibitor, partial curve, poor fit]

Question: Which Potency does the source give for `COc1ccc(-c2cc(C(F)F)n3ncc(C(=O)N4CCc5ccccc54)c3n2)cc1` here?
Answer: active: 1.58 µM
